Source: PMC8915953 (Frontiers in Microbiology, 2022)
Results are given in words; binding and its absence hold for the method and conditions named. Binding seen in cells or lysates may run through a third protein. Some entries that bind do so weakly or less than the wild type. For some of these results: Where a sequence is shown, tags or fusion partners need not be part of it. Each block holds one molecule with its values, some of them ahead of it.

The chains behind the UniProt entries cited, without tags or fusion partners.
UniProt Q01628: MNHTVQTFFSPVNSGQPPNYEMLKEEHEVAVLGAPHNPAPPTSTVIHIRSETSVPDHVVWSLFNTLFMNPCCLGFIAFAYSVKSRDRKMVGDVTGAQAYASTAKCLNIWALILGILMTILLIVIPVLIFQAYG
UniProt Q01629: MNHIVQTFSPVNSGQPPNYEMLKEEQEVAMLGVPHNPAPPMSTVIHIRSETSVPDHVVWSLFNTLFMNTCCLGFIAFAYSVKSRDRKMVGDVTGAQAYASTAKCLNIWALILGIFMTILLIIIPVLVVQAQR
UniProt P13164: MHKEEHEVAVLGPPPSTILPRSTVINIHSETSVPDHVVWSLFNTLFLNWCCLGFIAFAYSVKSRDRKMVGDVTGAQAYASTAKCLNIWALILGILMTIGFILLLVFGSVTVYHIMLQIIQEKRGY

What was measured:
[1] = target: IFITM3 tagged at the N terminus with LgBiT or SmBiT (human) (UniProt Q01628); assay: split reporter
[2] = target: endogenous IFITM3 (human (endogenous in A549)) (UniProt Q01628); assay: co-IP
[3] = target: endogenous IFITM2 (human (endogenous in A549)) (UniProt Q01629); assay: co-IP
[4] = target: endogenous IFITM1 (human (endogenous in A549)) (UniProt P13164); assay: co-IP

binding [1]: binds
Molecule: IFITM3 tagged at the N terminus with LgBiT or SmBiT (from UniProt Q01628 1-133)

binding [2]: binds
binding [3]: binds
binding [4]: binds
B1: endogenous ZMPSTE24 (protein, UniProt O75844 1-475)
chain: MGMWASLDALWEMPAEKRIFGAVLLFSWTVYLWETFLAQRQRRIYKTTTHVPPELGQIMDSETFEKSRLYQLDKSTFSFWSGLYSETEGTLILLFGGIPYLWRLSGRFCGYAGFGPEYEITQSLVFLLLATLFSALTGLPWSLYNTFVIEEKHGFNQQTLGFFMKDAIKKFVVTQCILLPVSSLLLYIIKIGGDYFFIYAWLFTLVVSLVLVTIYADYIAPLFDKFTPLPEGKLKEEIEVMAKSIDFPLTKVYVVEGSKRSSHSNAYFYGFFKNKRIVLFDTLLEEYSVLNKDIQEDSGMEPRNEEEGNSEEIKAKVKNKKQGCKNEEVLAVLGHELGHWKLGHTVKNIIISQMNSFLCFFLFAVLIGRKELFAAFGFYDSQPTLIGLLIIFQFIFSPYNEVLSFCLTVLSRRFEFQADAFAKKLGKAKDLYSALIKLNKDNLGFPVSDWLFSMWHYSHPPLLERLQALKTMKQH

binding [2]: binds
binding [3]: binds
binding [4]: binds
B2: ZMPSTE24-FLAG (protein, UniProt O75844 1-475)
chain: B1 chain
